{"source": "PubChem BioAssay AID504444", "about": "(National Center for Advancing Translational Sciences (NCATS), 2011)", "note": "About 7,500 (2.1%) of roughly 360,000 compounds were called active. This list was built around the results that the source calls inconclusive (neither active nor inactive); the mix of calls is not that of the screen. Calls come from the whole dose curve; as a rule, active = well fitted inhibition curve with a large enough effect; inconclusive = small, poorly fitted or top-dose-only effect, or effect the other way; inactive = flat fitted curve, though single readings scatter. Where the call is inconclusive, the potency comes from a doubtful curve fit. Potency is the fitted concentration of half-maximal effect."}
{"assay": "Nrf2 qHTS screen for inhibitors; note: nearly all actives have a fitted effect of over 60% in size", "conditions": "A549 ARE-Fluc reporter, luciferase luminescence, 18-24 h; series mostly up to 46 µM", "outline": "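In this cell-based qHTS, ARE-driven firefly luciferase in A549 cells reports Nrf2 activity; the luminescent signal after BugLite lysis is the measured value, with a prior CellTiter-Fluor read for cell health.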"}
{"smiles": "Cn1sc(NC(=O)c2cccc(Cl)c2)nc1=O", "Potency": "inconclusive: 2.59 µM [activator, full curve, poor fit]"}
{"smiles": "O=C(CC1C(=O)N(c2ccc(F)cc2)C(=O)N1Cc1cccnc1)Nc1ccc(F)cc1", "note": "(configuration not stated)", "Potency": "inactive"}
{"smiles": "COc1cccc(-n2c(CN3CCN(c4cccc(C)c4)C(C)C3)nc3ccc([N+](=O)[O-])cc3c2=O)c1", "note": "(configuration not stated)", "Potency": "inactive"}
{"smiles": "CC(C)CCNC(=O)c1ccc2c(Cl)c3c(nc2c1)CCC3", "Potency": "inconclusive: 3.26 µM [activator, full curve]"}
{"smiles": "OCCNCCCCOc1ccc(OCc2ccccc2)cc1", "Potency": "inconclusive: 8.2 µM [activator, partial curve]"}
{"smiles": "Cc1nc2ccc(NC(=O)NC(=O)c3c(Cl)cccc3Cl)cc2o1", "Potency": "inconclusive: 29.1 µM [activator, partial curve, poor fit]"}
{"smiles": "COc1ccc(-c2noc(-c3ccccc3C(=O)NCC3CCCO3)n2)cc1", "note": "(configuration not stated)", "Potency": "inconclusive: 9.2 µM [activator, partial curve]"}
{"smiles": "Cc1cc(NC(=O)Cn2nc([N+](=O)[O-])c(Br)c2C)no1", "Potency": "inconclusive: 3.26 µM [falling, partial curve]"}
{"smiles": "CC(=O)Nc1ccc(S(=O)(=O)N2CCN=C2c2ccccc2)cc1", "Potency": "inactive"}
{"smiles": "CCCCCCn1c(C)nc2c(c1=O)c1nc3ccccc3nc1n2/N=C/c1ccco1", "Potency": "active: 23.1 µM"}
{"smiles": "CCOc1c(Cl)cc(CNCc2ccncc2)cc1OC", "Potency": "inconclusive: 29.1 µM [falling, partial curve, poor fit]"}
{"smiles": "CCOc1ccc(S(=O)(=O)N2CCC(C(=O)N3CCCC3)CC2)cc1C", "Potency": "inconclusive: 23.1 µM [falling, partial curve, poor fit]"}
{"smiles": "COc1ccc(N(C(C)C(=O)N(C)Cc2ccccc2)S(C)(=O)=O)cc1", "note": "(configuration not stated)", "Potency": "inconclusive: 4.61 µM [activator, full curve]"}
{"smiles": "C=C1c2c(Cl)ccc(O)c2C(O)=C2C(=O)[C@]3(O)C(O)=C(C(N)=O)C(=O)[C@@H](N(C)C)[C@@H]3[C@@H](O)C12", "note": "(some centres not stated)", "Potency": "inconclusive: 18.4 µM [falling, single point]"}
{"smiles": "CC(C)c1ccccc1OCC(=O)NC1CCCc2ccccc21", "note": "(configuration not stated)", "Potency": "inconclusive: 20.6 µM [falling, partial curve, poor fit]"}
{"smiles": "O=C(Nc1ccc(Br)cc1Cl)c1ccc(OCC2CCCO2)cc1", "note": "(configuration not stated)", "Potency": "inconclusive: 32.6 µM [falling, single point]"}
{"smiles": "COc1ccc(C(=O)O/N=C(\\N)c2ccccn2)cc1", "Potency": "inconclusive: 1.3 µM [activator, partial curve]"}
{"smiles": "Cc1cc(=O)[nH]c2ccc(S(=O)(=O)Nc3ccccc3)cc12", "Potency": "inconclusive: 4.11 µM [falling, partial curve, poor fit]"}
{"smiles": "Cc1onc(-c2ccccc2)c1C(=O)OCC(=O)Nc1ccc(Cl)cc1", "Potency": "active: 23.1 µM"}
{"smiles": "O=C(NCc1ccc(F)cc1)C1CCN(S(=O)(=O)c2ccc(Cl)cc2)CC1", "Potency": "inconclusive: 7.31 µM [activator, single point]"}
{"smiles": "Cc1cc(C)n2cc(COc3ccc4ccccc4c3)nc2n1", "Potency": "inconclusive: 1.16 µM [activator, full curve]"}
{"smiles": "CC[C@]12c3[nH]c4ccc(Cl)cc4c3CCN1C(=O)[C@@H](CC(=O)NCCC1=CCCCC1)C[C@@H]2C(=O)N1CCN(C(=O)c2ccco2)CC1", "Potency": "active: 16.4 µM"}
{"smiles": "COc1ccc(CC(=O)Nc2sc3c(c2C(N)=O)CCCC3)cc1OC", "Potency": "inconclusive: 6.51 µM [falling, partial curve]"}
{"smiles": "COc1ccc(NS(=O)(=O)c2cn(C)cn2)c(OC)c1", "Potency": "inconclusive: 11.6 µM [falling, partial curve, poor fit]"}
{"smiles": "FC(F)(F)c1ccc(Sc2n[nH]c(C(F)(F)F)n2)nc1", "Potency": "inconclusive: 14.6 µM [falling, partial curve, poor fit]"}
{"smiles": "Cn1ccnc1SCc1cc(=O)[nH]c2ccccc12", "Potency": "inactive"}
{"smiles": "C[C@H](NC(=O)c1nc[nH]c1C(=O)NCc1ccccc1)C(=O)OC(C)(C)C", "Potency": "inactive"}
{"smiles": "Nc1ccc(C(=O)N/N=C/c2ccc(N3CCOCC3)s2)cc1", "Potency": "inconclusive: 20.6 µM [activator, single point]"}
{"smiles": "O=C(c1cccc(Cl)c1)N1CCN(c2ccc(N3CCOCC3)nn2)CC1", "Potency": "inconclusive: 0.103 µM [falling, full curve, poor fit]"}
{"smiles": "COc1ccc(CNC(=O)C2CCN(C(=O)c3csc(Nc4ccc(C)cc4)n3)CC2)cc1", "Potency": "inconclusive: 23.1 µM [falling, single point]"}
{"smiles": "Cc1cc(-c2nn(-c3ccccc3F)cc2CN2CCC(C(N)=O)CC2)c(C)s1", "Potency": "inconclusive: 32.6 µM [falling, single point]"}
{"smiles": "Cc1ccc(NC(=O)N(Cc2cn(C)c3ccccc23)C2CCCCC2)cc1C", "Potency": "inconclusive: 8.2 µM [activator, partial curve]"}
{"smiles": "CCCCCC(=O)NNC(=S)NC(=O)c1cccc([N+](=O)[O-])c1", "Potency": "inactive"}
{"smiles": "CC(=O)C1=C(C)N(Cc2ccccc2)C(=O)N[C@H]1CCc1ccccc1", "Potency": "inconclusive: 29.1 µM [falling, single point]"}
{"smiles": "CCOc1ccc(Br)cc1C(=O)N/N=C/c1ccccn1", "Potency": "inconclusive: 32.6 µM [falling, partial curve, poor fit]"}
{"smiles": "CCN1C(=O)C(CC(=O)Nc2ccc(OC)cc2)N(CCCN2CCN(c3ccc(OC)cc3)CC2)C1=S", "note": "(configuration not stated)", "Potency": "inconclusive: 29.1 µM [falling, single point]"}
{"smiles": "O=C(CN1C(=O)NC(Cc2ccccc2)C1=O)Nc1ccccc1", "note": "(configuration not stated)", "Potency": "inconclusive: 14.6 µM [activator, partial curve, poor fit]"}
{"smiles": "CC(C)Cc1nnc(NC(=O)C2CC(=O)N(c3ccc4c(c3)OCCO4)C2)s1", "note": "(configuration not stated)", "Potency": "inactive"}
{"smiles": "COc1ccccc1/C=N/NC(=O)c1cccc(OC(F)(F)C(F)F)c1", "Potency": "inactive"}
{"smiles": "CC(=O)c1cccc(S(=O)(=O)N2CCN(c3nc(-c4cccs4)nc4ccccc34)CC2)c1", "Potency": "inactive"}
{"smiles": "Cc1ccc2oc(C(=O)N3CCCCCC3)c(C)c2c1", "Potency": "inconclusive: 1.16 µM [activator, full curve]"}
{"smiles": "CCCCn1c(SCC(=O)N2CCCC2=O)nc2cc(S(N)(=O)=O)ccc21", "Potency": "inactive"}
